These are yes or no findings as the source states them, for the method shown. In cells and extracts the contact can be indirect. Some results given as binding are weak or reduced against the parent protein; the word gives no strength. For some of these results: Tags and fused reporters may be left off the sequences shown.
Columns and labels:
Assay in all cases: co-IP
[1] = molecular target: FUS cloned into the PKH3-HA vector, expressed in HEK-293T cells (UniProt P35637)
[2] = molecular target: T1, TIA1 cloned into the PKH3-HA vector, expressed in HEK-293T cells (human) (UniProt P31483)
T1 sequence: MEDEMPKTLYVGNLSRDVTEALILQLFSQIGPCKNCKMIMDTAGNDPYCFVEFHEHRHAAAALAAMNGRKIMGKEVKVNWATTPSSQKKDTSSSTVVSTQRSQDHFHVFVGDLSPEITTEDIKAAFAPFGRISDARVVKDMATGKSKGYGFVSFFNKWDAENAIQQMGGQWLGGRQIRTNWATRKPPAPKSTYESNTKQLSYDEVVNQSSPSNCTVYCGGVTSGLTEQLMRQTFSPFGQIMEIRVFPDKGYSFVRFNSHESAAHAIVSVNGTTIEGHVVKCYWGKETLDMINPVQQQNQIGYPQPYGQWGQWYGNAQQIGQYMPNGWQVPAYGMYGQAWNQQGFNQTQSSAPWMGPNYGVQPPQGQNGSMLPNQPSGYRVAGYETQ

Amino acid sequences for entries named in this document (tags omitted).
UniProt P35637: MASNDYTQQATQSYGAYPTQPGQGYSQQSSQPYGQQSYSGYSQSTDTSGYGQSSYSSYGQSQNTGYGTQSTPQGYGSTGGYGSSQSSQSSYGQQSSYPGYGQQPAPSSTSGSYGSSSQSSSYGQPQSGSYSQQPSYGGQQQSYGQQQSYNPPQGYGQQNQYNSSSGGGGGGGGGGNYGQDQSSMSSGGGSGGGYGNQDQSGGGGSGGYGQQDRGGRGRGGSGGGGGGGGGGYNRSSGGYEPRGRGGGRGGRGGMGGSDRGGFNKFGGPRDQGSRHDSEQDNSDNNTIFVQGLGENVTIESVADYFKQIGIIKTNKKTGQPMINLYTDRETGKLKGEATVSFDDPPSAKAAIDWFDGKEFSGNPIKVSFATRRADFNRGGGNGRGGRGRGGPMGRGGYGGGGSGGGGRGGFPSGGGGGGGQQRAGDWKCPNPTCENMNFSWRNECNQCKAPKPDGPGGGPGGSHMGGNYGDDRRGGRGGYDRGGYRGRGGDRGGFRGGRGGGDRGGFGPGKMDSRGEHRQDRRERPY
UniProt Q14157: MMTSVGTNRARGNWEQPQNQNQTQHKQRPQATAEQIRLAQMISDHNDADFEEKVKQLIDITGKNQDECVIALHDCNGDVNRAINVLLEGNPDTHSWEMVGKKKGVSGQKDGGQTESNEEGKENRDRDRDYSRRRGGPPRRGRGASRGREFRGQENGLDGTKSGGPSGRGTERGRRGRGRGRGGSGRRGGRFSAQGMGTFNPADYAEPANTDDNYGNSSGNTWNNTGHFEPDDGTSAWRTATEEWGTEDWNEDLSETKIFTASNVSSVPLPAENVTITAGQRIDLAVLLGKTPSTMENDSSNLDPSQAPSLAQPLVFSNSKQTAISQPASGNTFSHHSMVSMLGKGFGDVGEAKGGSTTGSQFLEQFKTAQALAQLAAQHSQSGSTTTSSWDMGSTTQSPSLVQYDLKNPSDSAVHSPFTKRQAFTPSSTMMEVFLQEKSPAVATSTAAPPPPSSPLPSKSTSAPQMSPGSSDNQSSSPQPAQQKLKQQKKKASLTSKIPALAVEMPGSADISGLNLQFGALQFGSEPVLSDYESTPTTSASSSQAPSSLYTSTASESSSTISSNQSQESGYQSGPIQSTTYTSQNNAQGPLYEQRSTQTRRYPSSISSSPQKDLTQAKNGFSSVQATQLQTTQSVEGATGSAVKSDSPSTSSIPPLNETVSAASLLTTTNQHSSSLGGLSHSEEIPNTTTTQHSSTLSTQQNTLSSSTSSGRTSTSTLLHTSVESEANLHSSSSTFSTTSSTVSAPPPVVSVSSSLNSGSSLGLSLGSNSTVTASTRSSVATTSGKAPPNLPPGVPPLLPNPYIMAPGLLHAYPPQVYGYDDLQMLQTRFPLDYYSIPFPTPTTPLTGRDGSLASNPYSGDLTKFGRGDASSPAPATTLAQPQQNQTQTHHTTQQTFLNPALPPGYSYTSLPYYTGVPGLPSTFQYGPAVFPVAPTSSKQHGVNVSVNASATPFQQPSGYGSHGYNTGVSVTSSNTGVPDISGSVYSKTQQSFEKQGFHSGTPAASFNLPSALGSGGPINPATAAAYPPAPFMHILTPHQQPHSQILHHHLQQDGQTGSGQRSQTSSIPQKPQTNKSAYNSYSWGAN
UniProt P15559: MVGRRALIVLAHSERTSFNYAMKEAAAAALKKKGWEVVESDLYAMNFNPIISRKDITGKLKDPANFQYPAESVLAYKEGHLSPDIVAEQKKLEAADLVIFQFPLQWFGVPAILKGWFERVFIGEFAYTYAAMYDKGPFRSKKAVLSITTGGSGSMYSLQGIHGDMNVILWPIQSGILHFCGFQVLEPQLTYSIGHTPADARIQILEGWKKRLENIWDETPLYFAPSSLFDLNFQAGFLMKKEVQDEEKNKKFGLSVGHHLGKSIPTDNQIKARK

[3] = molecular target: HA-tagged UBAP2L, expressed in HEK-293T cells (UniProt Q14157)
[4] = molecular target: T2, HA-tagged Caprin1, expressed in HEK-293T cells (UniProt Q14444)
T2 sequence: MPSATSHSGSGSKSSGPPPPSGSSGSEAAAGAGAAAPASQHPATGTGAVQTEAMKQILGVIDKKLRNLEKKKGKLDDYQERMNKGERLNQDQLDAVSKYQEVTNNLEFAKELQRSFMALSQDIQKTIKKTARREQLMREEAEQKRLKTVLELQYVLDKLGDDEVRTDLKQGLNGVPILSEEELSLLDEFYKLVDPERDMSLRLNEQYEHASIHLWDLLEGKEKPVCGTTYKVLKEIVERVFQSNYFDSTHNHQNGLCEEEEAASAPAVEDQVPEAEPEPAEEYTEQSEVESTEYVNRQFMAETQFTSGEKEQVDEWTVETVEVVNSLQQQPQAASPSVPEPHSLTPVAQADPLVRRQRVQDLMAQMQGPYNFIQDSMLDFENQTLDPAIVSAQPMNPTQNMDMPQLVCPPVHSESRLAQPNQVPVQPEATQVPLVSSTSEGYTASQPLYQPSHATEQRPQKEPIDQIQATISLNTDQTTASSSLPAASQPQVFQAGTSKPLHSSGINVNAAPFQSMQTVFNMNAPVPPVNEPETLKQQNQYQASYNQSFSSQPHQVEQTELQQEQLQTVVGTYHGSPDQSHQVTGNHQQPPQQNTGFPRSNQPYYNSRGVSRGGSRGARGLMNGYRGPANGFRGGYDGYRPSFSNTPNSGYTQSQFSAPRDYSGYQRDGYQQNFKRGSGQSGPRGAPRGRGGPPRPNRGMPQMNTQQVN

Measured: binding

Flag-tagged NQO1 full length, expressed in HEK-293T cells (from UniProt P15559 1-274) (enzyme)
binds: all assays above

Reference: article doi:10.1101/2025.09.25.678687
